Experimental data reported in paper PMC5171868.
No constants are given. Whether binding was seen depends on the method and setting. In cells and extracts the contact can be indirect. Some results given as binding are weak or reduced against the parent protein; the word gives no strength.

By UniProt entry, the sequences of proteins in these tests, tags left out. Where a name states a change or a piece, a line headed by the entry shows the natural chain unless it says otherwise. Residues count along the entry.
UniProt P15559: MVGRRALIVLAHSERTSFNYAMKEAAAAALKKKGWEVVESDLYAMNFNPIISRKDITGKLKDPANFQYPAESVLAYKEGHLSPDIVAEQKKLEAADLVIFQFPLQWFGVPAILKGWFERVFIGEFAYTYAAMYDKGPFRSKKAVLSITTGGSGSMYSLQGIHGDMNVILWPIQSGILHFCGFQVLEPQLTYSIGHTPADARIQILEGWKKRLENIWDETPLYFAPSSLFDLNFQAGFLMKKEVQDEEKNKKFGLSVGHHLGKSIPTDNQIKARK
UniProt Q16665: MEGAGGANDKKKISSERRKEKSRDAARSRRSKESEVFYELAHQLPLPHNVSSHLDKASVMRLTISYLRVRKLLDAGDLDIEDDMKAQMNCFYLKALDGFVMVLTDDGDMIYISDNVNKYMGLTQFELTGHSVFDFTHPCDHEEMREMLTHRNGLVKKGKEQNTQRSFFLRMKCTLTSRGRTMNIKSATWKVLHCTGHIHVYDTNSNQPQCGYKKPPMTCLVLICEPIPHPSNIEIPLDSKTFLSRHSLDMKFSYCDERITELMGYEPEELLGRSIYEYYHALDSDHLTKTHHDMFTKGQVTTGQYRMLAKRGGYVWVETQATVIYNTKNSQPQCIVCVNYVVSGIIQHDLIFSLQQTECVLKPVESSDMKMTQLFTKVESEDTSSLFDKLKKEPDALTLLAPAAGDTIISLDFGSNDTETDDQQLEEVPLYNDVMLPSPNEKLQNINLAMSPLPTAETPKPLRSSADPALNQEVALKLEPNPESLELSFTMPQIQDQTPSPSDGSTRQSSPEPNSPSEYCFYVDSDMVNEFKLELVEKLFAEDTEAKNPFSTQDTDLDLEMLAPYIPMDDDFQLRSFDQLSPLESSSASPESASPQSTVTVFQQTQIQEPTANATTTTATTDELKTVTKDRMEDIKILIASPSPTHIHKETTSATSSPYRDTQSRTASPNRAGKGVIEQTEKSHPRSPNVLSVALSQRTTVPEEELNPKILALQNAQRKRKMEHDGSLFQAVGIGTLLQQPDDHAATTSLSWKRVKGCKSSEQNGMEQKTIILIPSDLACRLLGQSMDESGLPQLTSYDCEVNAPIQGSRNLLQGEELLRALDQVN
EGFP-HIF-1α 1–786: residues 1-786 of Q16665
EGFP-HIF-1α 1–575: residues 1-575 of Q16665
EGFP-HIF-1α 331–575 (ODD domain): residues 331-575 of Q16665

Key:
NQO1-myc-His6 (human) = NQO1-myc-His6 (human) (UniProt P15559); test: pull-down; His6-tagged protein affinity-purified and conjugated to Ni-NTA resin; incubated 2 h at 4 °C with 1 mg total protein of RKO cells exposed to hypoxia for 2 h; immunoblot; only the target purified
[1] = molecular target: HIF-1α (hypoxia-inducible factor 1α), endogenous (human (endogenous in RKO and MDA-MB-231)) (UniProt Q16665); test: co-IP; endogenous proteins; RKO cells exposed to 20 or 0.5% O2 for 2 h; lysis in RIPA/PBS (33% v/v); IP with anti-HIF-1α or anti-NQO1 antibody, normal IgG as control; Protein G-magnetic beads, 4 °C
[2] = molecular target: HIF-1α (hypoxia-inducible factor 1α), endogenous (human (endogenous in RKO and MDA-MB-231)) (UniProt Q16665); test: co-IP; cytosolic fraction of RKO cells (20 or 0.5% O2, 2 h; Tween 20 lysis buffer); 0.5 mg protein precipitated with 0.5 μg anti-HIF-1α or anti-NQO1 antibody
[3] = molecular target: EGFP-HIF-1α full-length (human) (UniProt Q16665); test: pull-down; EGFP fusion protein affinity-purified and conjugated to anti-GFP beads; incubated 2 h at 4 °C with 1 mg total protein of RKO cells exposed to hypoxia for 2 h; immunoblot with anti-GFP and anti-NQO1; only the target purified
[4] = molecular target: EGFP-HIF-1α 331–575 (ODD domain) (human) (UniProt Q16665); test: as above
[5] = molecular target: EGFP-HIF-1α 1–575 (human) (UniProt Q16665); test: as above
[6] = molecular target: EGFP-HIF-1α 1–786 (human) (UniProt Q16665); test: as above
HIF-1α-myc-His6 (human) = HIF-1α-myc-His6 (human) (UniProt Q16665); test: pull-down; His6-tagged protein affinity-purified and conjugated to Ni-NTA resin; incubated 2 h at 4 °C with 1 mg total protein of RKO cells exposed to hypoxia for 2 h; immunoblot; only the target purified

Measured: binding

HIF-1α (hypoxia-inducible factor 1α), endogenous (from UniProt Q16665 1-826)
binds: NQO1-myc-His6 (human)

NAD(P)H:quinone oxidoreductase 1 (NQO1), endogenous (from UniProt P15559 1-274) (enzyme)
not listed: NQO1-myc-His6 (human)
binds: all other assays above
